From PubChem BioAssay AID2685 (National Center for Advancing Translational Sciences (NCATS), 2010)
The other results are listed elsewhere or left out. The main result of the screen is listed elsewhere. These columns were measured beside it and carry no call. Most of these compounds were active or inconclusive in the main read-out, so they are no random draw. Potencies come from curve fits of mixed quality, noted in brackets.

Assay: qHTS Assay for Lipid Storage Modulators in Drosophila S3 Cells;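 for cell number change: cells counted by Cell Tracker Red CMTPX staining in the red channel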
Conditions: BODIPY lipid droplet fluorescence, 18-24 h; for cell number change: measured here: cell count max response, cells fed with added oleic acid
Outline: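 Drosophila S3 cells loaded with oleic acid (400 uM, as added) and compounds at several concentrations; lipid droplets imaged by 488-nm laser-scanning cytometry, 500–530 nm intensity and object ratio to cell channel. Percent activity normalized to 20 uM Triacsin C.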

[1] = measured here: lipid fluorescence (Fed channel) AC50, cells fed with added oleic acid
[2] = measured here: cell number channel AC50, cells fed with added oleic acid

| SMILES | cell number change | AC50 [1] | AC50 [2] |
| --- | --- | --- | --- |
| O=C(NCc1ccc2c(c1)OCO2)C(=O)NCC1OCCN1S(=O)(=O)c1ccc(Br)cc1 (stereo not given) | -7.62% | 5.01 µM [rising, partial curve] | – |
| CCC(=O)Nc1ccc(/C(C)=N/NC(=O)c2c(Br)c(C)nn2C)cc1 | 1.98% | 18.4 µM [rising, partial curve] | 6.51 µM [rising, single point] |
| CC(=O)Nc1ccc(C(=O)OCC(=O)NCc2ccccc2)cc1 | -14.2% | 0.794 µM [falling, full curve, poor fit] | – |
| COC(=O)C1=C(C)NC(C)=C(C(=O)OC)C1C(=O)OC1CCCCC1=O (stereo not given) | 19.9% | 29.1 µM [falling, single point] | – |
| Cc1cc(-c2csc(NC(=O)c3ccc(C#N)cc3)n2)c(C)n1Cc1ccco1 | 14.3% | 7.31 µM [rising, partial curve] | – |
| CCN1CCN(CC(=O)Nc2cc(C)on2)CC1 | -45.7% | 0.517 µM [falling, full curve] | 0.731 µM [falling, full curve] |
| COc1ccc(C(=O)Nc2ccc(NC(=O)c3ccco3)c(Cl)c2)cc1OC | -14.3% | 4.11 µM [rising, single point] | – |
| Cc1cccc(C)c1NC(=O)COC(=O)c1ccc2c(c1)OCO2 | 9.04% | 6.51 µM [rising, partial curve, poor fit] | 6.51 µM [rising, single point] |
| O=C(CCNC(=O)c1ccco1)Nc1cccc(C(F)(F)F)c1 | 42.1% | – | 29.1 µM [rising, single point] |
| CCc1nc2sccc2c(=O)[nH]1 | -14% | 0.146 µM [falling, partial curve, poor fit] | 0.184 µM [falling, full curve] |
| COCCN(Cc1cn[nH]c1-c1ccc2cc(OC)ccc2c1)C(C)C | -0.549% | 20.6 µM [rising, partial curve] | – |
| CC(=O)N1c2c(cc(Br)cc2S(=O)(=O)NCc2ccc(C)cc2)CC1C (stereo not given) | 25.7% | 0.58 µM [falling, single point] | – |
| COc1ccc(-c2nn3cnnc3s2)cc1OC | 37.8% | – | 18.4 µM [rising, single point] |
| Cc1c(C(=O)Nc2cnccn2)oc2ccccc12 | – | 0.58 µM [rising, single point] | – |
| Cc1ccccc1N1CCN(C(=O)[C@@H]2CCCN2C2=NS(=O)(=O)c3ccccc32)CC1 | -20.1% | 1.64 µM [rising, partial curve] | – |
| O=C(N/N=C/c1ccc2c(c1)OCO2)c1sc2cccc(Cl)c2c1Cl | 41.6% | 0.103 µM [rising, full curve, poor fit] | 29.1 µM [rising, single point] |
| CCCC(=O)NCCCc1nc2ccccc2n1CC | -75.5% | 2.06 µM [falling, partial curve] | 1.84 µM [falling, partial curve] |
| COc1ccc(/C=C2/C(=O)N(c3cccc(F)c3)N=C2C)c(OC)c1 | -10.9% | – | – |
| Cc1ccc(C)c(NC(=O)CN(C)C(=O)CN2C(=O)C3CCCCC3C2=O)c1 (stereo not given) | 38.1% | – | 29.1 µM [rising, single point] |
| CCN(CC)CCSc1nc(O)c(-c2ccccc2)c(=O)n1-c1ccccc1 | 91.7% | – | – |

Grouped by structure: those above with a halogen

| SMILES | cell number change | AC50 [1] | AC50 [2] |
| --- | --- | --- | --- |
| O=C(NCc1ccc2c(c1)OCO2)C(=O)NCC1OCCN1S(=O)(=O)c1ccc(Br)cc1 (stereo not given) | -7.62% | 5.01 µM [rising, partial curve] | – |
| CCC(=O)Nc1ccc(/C(C)=N/NC(=O)c2c(Br)c(C)nn2C)cc1 | 1.98% | 18.4 µM [rising, partial curve] | 6.51 µM [rising, single point] |
| COc1ccc(C(=O)Nc2ccc(NC(=O)c3ccco3)c(Cl)c2)cc1OC | -14.3% | 4.11 µM [rising, single point] | – |
| O=C(CCNC(=O)c1ccco1)Nc1cccc(C(F)(F)F)c1 | 42.1% | – | 29.1 µM [rising, single point] |
| CC(=O)N1c2c(cc(Br)cc2S(=O)(=O)NCc2ccc(C)cc2)CC1C (stereo not given) | 25.7% | 0.58 µM [falling, single point] | – |
| O=C(N/N=C/c1ccc2c(c1)OCO2)c1sc2cccc(Cl)c2c1Cl | 41.6% | 0.103 µM [rising, full curve, poor fit] | 29.1 µM [rising, single point] |
| COc1ccc(/C=C2/C(=O)N(c3cccc(F)c3)N=C2C)c(OC)c1 | -10.9% | – | – |

Carrying on.

| SMILES | cell number change | AC50 [1] | AC50 [2] |
| --- | --- | --- | --- |
| CC(C)(C)C(C(=O)Oc1ccccc1)c1ccccc1 (stereo not given) | 7.44% | 0.651 µM [rising, full curve, poor fit] | – |
| O=C(CCNC(=O)c1ccccc1)N/N=C/c1ccc([N+](=O)[O-])cc1 | – | 0.146 µM [falling, full curve, poor fit] | 2.91 µM [rising, single point] |
| O=C1CC(Sc2ncccc2C(=O)O)C(=O)N1 (stereo not given) | -49.4% | 0.103 µM [falling, full curve, poor fit] | 16.4 µM [falling, single point] |
| O=C1CCC(=O)N1c1ccc(NCCc2cccc(F)c2)c([N+](=O)[O-])c1 | 14.6% | 0.0116 µM [rising, full curve, poor fit] | – |
| CCOC(=O)c1ccc(NC(=O)CC2C(=O)N(c3cccc(OC)c3)C(=O)N2CCOC)cc1 (stereo not given) | 26.3% | – | – |
| Cc1ccc(NC(=O)[C@H](CC(C)C)NC(=O)[C@@H]2Cc3ccccc3CN2)cc1 | -33.8% | – | 29.1 µM [falling, single point] |
| CC(=O)Nc1ccc(S(=O)(=O)NNC(=O)c2ccc(C)cc2)cc1 | – | 0.651 µM [rising, single point] | – |
| Cc1ccc(C)c(S(=O)(=O)Nc2ccc(C(=O)NCC(c3ccco3)N(C)C)cc2)c1 (stereo not given) | 96.8% | – | 14.6 µM [rising, partial curve] |
| CCc1noc(C)c1C(=O)Nc1ccc(Cl)c(S(=O)(=O)N2CCCCC2)c1 | 175% | – | 23.1 µM [rising, partial curve] |
| CC(C)(Cc1ccc(O)cc1)NC(=O)CC(=O)N=Nc1c(O)[nH]c2ccc(Br)cc12 | -7.51% | – | – |
| CC(=O)c1cccc(NC(=O)CCCOc2ccc(C)cc2)c1 | – | 0.092 µM [falling, full curve, poor fit] | – |
| O=C(CCl)N(c1ccccc1)c1c[nH]c2ccccc12 | -23.4% | – | – |
| Clc1ccc(CNc2ccc(N3CCN(Cc4ccccc4)CC3)cc2)cc1 | -48.6% | 29.1 µM [falling, single point] | 16.4 µM [falling, partial curve, poor fit] |
| CSc1ccc(C2CC(=O)Nc3nc(SC)[nH]c(=O)c32)cc1 (stereo not given) | 12.5% | – | – |
| S=c1[nH]nc(-c2ccccc2)n1Cc1ccccc1 | 21.6% | 3.66 µM [rising, partial curve] | – |
| CCCNC(=O)c1ccc(N2CCC3(CC2)CC(c2ccccc2)=NO3)c([N+](=O)[O-])c1 | 7.19% | 0.13 µM [falling, full curve, poor fit] | – |
| Cc1ccccc1NC(=O)COC(=O)CCC(=O)c1cccs1 | – | – | 0.0058 µM [falling, full curve, poor fit] |
| Cc1ccc(C)c(S(=O)(=O)N2CCCCC2CCNC(=O)C(=O)NCc2ccccn2)c1 (stereo not given) | – | 7.31 µM [falling, partial curve] | 2.31 µM [falling, single point] |
| Cc1nc2c(c(=O)n1CCC(C)C)c1nc3ccccc3nc1n2Cc1ccc2c(c1)OCO2 | 23.6% | 0.651 µM [rising, single point] | – |
| Cc1cc(=O)n2nc(-c3ccccc3)sc2c1C#N | -5.98% | 0.517 µM [rising, full curve, poor fit] | – |

Copied from the list.
AC50 [2], Cc1ccc(C)c(NC(=O)CN(C)C(=O)CN2C(=O)C3CCCCC3C2=O)c1 (stereo not given) is entered as 29.1 µM [rising, single point]
cell number change, O=C(CCl)N(c1ccccc1)c1c[nH]c2ccccc12 is entered as -23.4%

Remaining list, next part.

| SMILES | cell number change | AC50 [1] | AC50 [2] |
| --- | --- | --- | --- |
| O=C(c1c(F)cccc1F)N1CCCC(c2nc(-c3ccc(F)cc3)no2)C1 (stereo not given) | 4.4% | 29.1 µM [falling, single point] | – |
| Cc1cccc(/C=C2/Sc3ccc(C(=O)NCCCN4CCOCC4)cc3NC2=O)c1 | -26.2% | 29.1 µM [falling, single point] | – |
| CCCCn1c(SCC(=O)N2CCCC2)nnc1-c1ccccc1 | – | – | 2.91 µM [rising, partial curve] |
| Cc1c(NC(=O)/C(C#N)=C/c2ccc(-c3cc(Cl)ccc3Cl)o2)c(=O)n(-c2ccccc2)n1C | 105% | 0.291 µM [rising, full curve] | 11.6 µM [rising, partial curve, poor fit] |
| COC(=O)C(NC(C)=O)(Nc1nc2ccc(C)cc2s1)C(F)(F)F (stereo not given) | -2.86% | 0.651 µM [falling, full curve] | 0.731 µM [falling, full curve] |
| C=CCNc1oc(-c2ccc(OC)cc2)nc1C#N | 109% | 2.91 µM [rising, partial curve, poor fit] | 13 µM [rising, partial curve] |
| Cc1nnc(NS(=O)(=O)c2ccc(N)cc2)s1 | 8.99% | 1.3 µM [falling, full curve, poor fit] | – |
| CC(C(=O)Nc1cccc(S(=O)(=O)N2CCOCC2)c1)N1CCN(C)CC1 (stereo not given) | -11.3% | – | 0.00517 µM [falling, full curve, poor fit] |
| Cc1cccc(N=Nc2ccc(O)c3ncccc23)c1 | 37.8% | 10.3 µM [falling, partial curve, poor fit] | 29.1 µM [rising, single point] |
| Cc1nn(C)c(C)c1CNC(=O)Nc1ccc2c(c1)OCO2 | – | – | 0.58 µM [rising, single point] |
| CCN(CC)S(=O)(=O)c1ccc(NC(=O)c2ccc(NS(C)(=O)=O)cc2)cc1 | 3.05% | 6.51 µM [rising, partial curve] | – |
| COc1cccc(-c2c(C(=O)N/N=C/C3CC=CCC3)nnn2-c2nonc2N)c1 (stereo not given) | 32.5% | – | – |
| C=CCNC(=O)C1CCCN(S(C)(=O)=O)C1 (stereo not given) | 11.6% | 0.058 µM [rising, full curve, poor fit] | – |
| O=C(NCC1CCCO1)c1cc([N+](=O)[O-])ccc1N1CCC(Cc2ccccc2)CC1 (stereo not given) | -13.3% | 0.00517 µM [rising, full curve, poor fit] | – |
| CCc1c(C)nc2nc(SCc3ccccc3Cl)[nH]n2c1=O | – | – | 0.731 µM [rising, single point] |
| CCCC(=O)Nc1ccc(C(=O)NCC2CCCO2)cc1 (stereo not given) | 15.2% | 1.46 µM [falling, partial curve] | – |
| Cc1nc(C)c(C(=O)C2=C(O)C(=O)N(CCN3CCOCC3)C2c2ccco2)s1 (stereo not given) | -12.2% | 3.26 µM [falling, single point] | – |
| O=C(Nc1ccc(F)cc1)C1CCCCC1 | -89.8% | 29.1 µM [falling, single point] | 20.6 µM [falling, partial curve, poor fit] |
